# Inconclusive results, whose numbers are uncertain, are shown with a selection of clear calls. For part of these data: Potencies beside an inconclusive call are fits to weak or partial responses and may not hold up. Calls of active or inactive are those of the source. How the source made its calls: active means hit-call score of the fitted dose curve at least 0.9, where 1 is the maximum; inconclusive means response in the unintended direction; inactive means score below 0.9.
# Amino acid sequences for entries named in this document (tags omitted). A change or cut given only in a name is not applied to a line headed by its entry.
# UniProt P10828: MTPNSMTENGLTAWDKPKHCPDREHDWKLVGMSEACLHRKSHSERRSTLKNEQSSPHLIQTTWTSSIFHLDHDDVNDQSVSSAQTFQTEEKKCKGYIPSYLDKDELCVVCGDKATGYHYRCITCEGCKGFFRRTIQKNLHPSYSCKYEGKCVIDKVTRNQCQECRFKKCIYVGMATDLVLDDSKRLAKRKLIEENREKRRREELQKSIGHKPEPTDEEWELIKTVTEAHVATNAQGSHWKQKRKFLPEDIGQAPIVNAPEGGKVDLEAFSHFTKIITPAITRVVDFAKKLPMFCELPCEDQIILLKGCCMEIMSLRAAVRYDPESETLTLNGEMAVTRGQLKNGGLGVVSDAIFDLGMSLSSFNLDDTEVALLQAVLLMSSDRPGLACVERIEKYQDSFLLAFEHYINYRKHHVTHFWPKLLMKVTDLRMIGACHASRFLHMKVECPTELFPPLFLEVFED
# UniProt P10275: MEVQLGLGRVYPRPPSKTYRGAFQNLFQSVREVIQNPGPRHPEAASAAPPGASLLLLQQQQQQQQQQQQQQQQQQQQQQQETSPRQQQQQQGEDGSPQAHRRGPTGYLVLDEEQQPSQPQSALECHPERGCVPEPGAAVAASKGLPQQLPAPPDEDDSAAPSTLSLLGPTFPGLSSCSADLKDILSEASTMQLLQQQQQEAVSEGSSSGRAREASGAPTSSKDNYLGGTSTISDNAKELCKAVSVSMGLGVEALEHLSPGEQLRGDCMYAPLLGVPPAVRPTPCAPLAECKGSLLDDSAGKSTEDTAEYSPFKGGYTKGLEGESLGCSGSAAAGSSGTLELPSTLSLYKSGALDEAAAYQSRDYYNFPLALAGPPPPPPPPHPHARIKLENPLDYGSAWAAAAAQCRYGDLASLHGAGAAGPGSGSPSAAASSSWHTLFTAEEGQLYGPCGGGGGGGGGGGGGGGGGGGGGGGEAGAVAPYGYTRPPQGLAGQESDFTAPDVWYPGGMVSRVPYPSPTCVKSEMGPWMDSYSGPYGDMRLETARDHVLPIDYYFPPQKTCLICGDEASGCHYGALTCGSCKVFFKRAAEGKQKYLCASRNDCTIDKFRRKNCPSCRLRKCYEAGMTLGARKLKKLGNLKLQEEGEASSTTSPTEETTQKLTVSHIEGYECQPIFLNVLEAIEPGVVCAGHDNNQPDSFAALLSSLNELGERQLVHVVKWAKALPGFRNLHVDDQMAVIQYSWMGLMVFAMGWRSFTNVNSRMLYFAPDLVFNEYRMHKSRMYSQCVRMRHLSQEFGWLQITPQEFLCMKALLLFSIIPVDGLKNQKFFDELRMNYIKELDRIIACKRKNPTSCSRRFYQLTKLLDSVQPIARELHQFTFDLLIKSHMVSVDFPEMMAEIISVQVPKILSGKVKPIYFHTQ
# UniProt P10827: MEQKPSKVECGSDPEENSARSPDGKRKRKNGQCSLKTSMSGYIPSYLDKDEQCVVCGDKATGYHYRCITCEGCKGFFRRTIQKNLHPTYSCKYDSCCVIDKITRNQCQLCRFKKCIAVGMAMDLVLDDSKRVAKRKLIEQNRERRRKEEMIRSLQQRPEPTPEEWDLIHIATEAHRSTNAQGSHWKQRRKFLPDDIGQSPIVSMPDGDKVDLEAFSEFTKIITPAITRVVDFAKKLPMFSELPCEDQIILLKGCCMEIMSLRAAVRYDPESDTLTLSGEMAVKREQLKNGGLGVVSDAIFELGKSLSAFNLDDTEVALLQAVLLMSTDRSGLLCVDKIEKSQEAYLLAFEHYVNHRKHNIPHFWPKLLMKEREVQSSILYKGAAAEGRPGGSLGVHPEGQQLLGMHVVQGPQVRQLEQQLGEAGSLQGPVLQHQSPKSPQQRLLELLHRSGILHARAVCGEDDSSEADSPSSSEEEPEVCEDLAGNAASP
# UniProt P19793: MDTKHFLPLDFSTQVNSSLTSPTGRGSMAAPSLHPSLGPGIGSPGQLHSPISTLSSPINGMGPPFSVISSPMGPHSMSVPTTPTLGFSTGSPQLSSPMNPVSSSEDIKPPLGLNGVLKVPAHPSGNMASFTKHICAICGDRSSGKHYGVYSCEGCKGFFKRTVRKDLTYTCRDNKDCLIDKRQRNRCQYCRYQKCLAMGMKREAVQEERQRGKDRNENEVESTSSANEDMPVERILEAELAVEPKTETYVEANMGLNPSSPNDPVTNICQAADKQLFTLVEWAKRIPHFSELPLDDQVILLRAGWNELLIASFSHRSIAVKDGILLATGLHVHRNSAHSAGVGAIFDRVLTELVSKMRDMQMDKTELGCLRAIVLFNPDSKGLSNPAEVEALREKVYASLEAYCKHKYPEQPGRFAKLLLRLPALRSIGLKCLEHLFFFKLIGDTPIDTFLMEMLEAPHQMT
# What was measured:
# [1] = target: THRB (gene 7068) (UniProt P10828); assay: TOX21_TRB_BLA_Agonist_Followup_ratio: Tox21 Thyroid Hormone Receptor beta Agonism Beta-lactamase (BLA) Follow-Up Assay, Ratio (AID 2283954)
# Summary of the method: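 Human TRβ LBD–GAL4 DBD fusion in GeneBLAzer UAS-bla HEK293T cells; 11 concentrations in triplicate, 18 h at 37°C/5% CO2, T3 as agonist control. CCF4-AM substrate 2 h at room temperature; 460:530 nm ratio fitted for gain of signal versus DMSO.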
# [2] = target: Nucleoli Translocation, AR (gene 367) (UniProt P10275); assay: UPITT_HCI_U2OS_AR_TIF2_Nucleoli_Agonist: University of Pittsburgh U2OS Androgen Receptor-Transcriptional Intermediary Factor 2 (AR-TIF2) Agonism High Content Imaging Assay for Nucleoli Translocation (AID 2283998)
# Summary of the method: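 RFP-AR / GFP-TIF2 cells; cpds diluted in serum-free medium; single-point screen 20 uM final (0.2% DMSO), actives confirmed in triplicate; conc-response 0.195–50 uM final (0.5% DMSO). Readout: nucleolar red fluorescence, positive direction vs DMSO.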
# [3] = target: Ratio of Nucleoli Translocation and Cytoplasm, AR (gene 367) (UniProt P10275); assay: UPITT_HCI_U2OS_AR_TIF2_Nucleoli_Cytoplasm_Ratio_Antagonist: University of Pittsburgh U2OS Androgen Receptor-Transcriptional Intermediary Factor 2 (AR-TIF2) Antagonism High Content Imaging Assay for Ratio of Nucleoli Translocation and Cytoplasm (AID 2283999);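 further: antagonists lower the DHT-driven ratio of nucleolar to cytoplasmic red signal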
# Summary of the method: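 U2OS cells expressing RFP-tagged human AR and GFP-tagged TIF2; compounds tested at 20 uM final (0.2% DMSO) in primary screen, 0.195–50 uM (0.5% DMSO) for concentration response. Readout: nucleolar-to-cytoplasmic red fluorescence ratio by high-content imaging, fitted relative to DHT.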
# [4] = TOX21_TR_RXR_BLA_Antagonist_Followup_viability: Viability Assessment in the Tox21 Thyroid Hormone Receptor beta Retinoid X Receptor alpha (RXRa) Antagonism Beta-lactamase (BLA) Follow-Up Assay (AID 2283979)
# Summary of the method: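 RXRa-bla HEK293T cells (2,500/well, phenol red-free DMEM, 2% charcoal-stripped FBS) were attached 5 h, then exposed to compounds at 11 concentrations in triplicate for 16 h at 37C. Viability measured by CellTiter-Glo ATP luminescence, bidirectional fitting versus DMSO.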
# [5] = CCTE_Harrill_HTTr_CellCount_MCF7: CCTE's Cell Proliferation Assessment for the High-Throughput Transcriptomics (HTTr) Platform, Harrill Lab (AID 2284012);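 further: cells exposed to compound for six hours; intended direction is loss of nuclei count meaning fewer cells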
# Summary of the method: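 MCF-7 cells were exposed for 6 h to an eight-point dilution series; Hoechst-labeled nuclei were counted by high content imaging. Curves were fitted bidirectionally against DMSO as negative control and baseline, with signal loss indicating reduced cell count.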
# [6] = target: THRA (gene 7067) (UniProt P10827); assay: TOX21_TRA_COA_Antagonist_Followup_ratio: Tox21 Thyroid Hormone Receptor alpha Antagonism through Coactivator Recruitment Follow-Up Assay, Ratio (AID 2283953)
# Summary of the method: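 This follow-up to the GH3 luciferase screen checks specificity in a cell-free format. It measures SRC-2 coactivator peptide binding to TRα LBD by TR-FRET and scores loss of ratio signal relative to DMSO.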
# [7] = target: THRB (gene 7068) (UniProt P10828); assay: TOX21_TRB_COA_Antagonist_Followup_ratio: Tox21 Thyroid Hormone Receptor beta Antagonism through Coactivator Recruitment Follow-Up Assay, Ratio (AID 2283967)
# Summary of the method: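 Cell-free TR-FRET: GST-TRb LBD (5.0 nM) with fluorescein-SRC-2 peptide (200 nM) and Tb anti-GST antibody (2 nM), 0.10% BSA. 520:495 nm emission ratio normalized to DMSO (0%) and T3 (100%).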
# [8] = target: Retinoic acid receptor RXR-alpha (Homo sapiens) (UniProt P19793); assay: TOX21_TR_RXR_BLA_Antagonist_Followup_ratio: Tox21 Thyroid Hormone Receptor beta Retinoid X Receptor alpha (RXRa) Antagonism Beta-lactamase (BLA) Follow-Up Assay, Ratio (AID 2283972)
# Summary of the method: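 Beta-lactamase reporter readout as cleaved/uncleaved substrate ratio (460:530 nm) after 2 h substrate loading at room temperature. GAL4-RXRa bla HEK293T cells were exposed 16 h at 37C to 11-point compound series; loss of signal scored against DMSO baseline.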
# [9] = TOX21_PR_LUC_Followup_Antagonist_viability: Viability Assessment in the Tox21 HEK293 Progesterone Receptor (PR) Antagonism Luciferase Follow-Up Assay (AID 2283940)
# Summary of the method: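 HEK293-PR-A-luc cells, precultured 5 days in assay medium with 10% charcoal-stripped FBS, were seeded at 3,000 cells/well, treated with compounds in DMSO for 16 h at 37C, and viability was read as cellular ATP by CellTiter-Glo luminescence.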
# [10] = target: Nucleoli Translocation, AR (gene 367) (UniProt P10275); assay: UPITT_HCI_U2OS_AR_TIF2_Nucleoli_Antagonist: University of Pittsburgh U2OS Androgen Receptor-Transcriptional Intermediary Factor 2 (AR-TIF2) Antagonism High Content Imaging Assay for Nucleoli Translocation (AID 2283997)
# Summary of the method: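 U2OS cells co-expressing red-fluorescent-tagged human AR and green-fluorescent-tagged TIF2, imaged by high-content microscopy for nucleolar red fluorescence. Antagonist mode against DHT; primary screen at 20 uM final (0.2% DMSO).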
# [11] = TOX21_PR_LUC_Followup_Agonist_viability: Viability Assessment in the Tox21 HEK293 Progesterone Receptor (PR) Agonism Luciferase Follow-Up Assay (AID 2283941);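 further: loss of signal means cytotoxicity so actives lower viability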
# Summary of the method: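 HEK293-PR-A-luc cells, pre-cultured 5 days in 10% charcoal-stripped FBS, were seeded at 3,000 cells/well, rested 5 h at 37C, then given compound in DMSO for 16 h at 37C. Cellular ATP was read by CellTiter-Glo luminescence; signal loss indicates cytotoxicity.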
# [12] = TOX21_TR_RXR_BLA_Agonist_Followup_viability: Viability Assessment in the Tox21 Thyroid Hormone Receptor beta Retinoid X Receptor alpha (RXRa) Agonism Beta-lactamase (BLA) Follow-Up Assay (AID 2283970)
# Summary of the method: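 RXRa-UAS-bla HEK293T cells seeded at 2,500/well in phenol red-free DMEM with 2% charcoal-stripped FBS, exposed to compound 16h at 37C/5% CO2 in qHTS. Viability read by CellTiter-Glo ATP luminescence; bidirectional fitting against DMSO baseline, signal loss indicating cytotoxicity.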
# [13] = test system: DIO1 (gene 1733); assay: CCTE_GLTED_hDIO1: CCTE's human Deiodinase 1 (DIO1) Inhibition Assay, Great Lakes Toxicology and Ecology Division (GLTED) Lab (AID 2283987);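 further: isolated human DIO1 enzyme in a cell-free setup rather than cells; enzyme activity read as free iodide liberated from substrate via Sandell-Kolthoff colorimetry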
# Summary of the method: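 Steps: human DIO1 enzyme plus test chemical, 3 h incubation; free iodide then quantified in a second Sandell-Kolthoff step by absorbance. DMSO served as negative control and baseline.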
# [14] = TOX21_TRB_BLA_Antagonist_Followup_viability: Viability Assessment in the Tox21 Thyroid Hormone Receptor beta Antagonism Beta-lactamase (BLA) Follow-Up Assay (AID 2283961)
# Summary of the method: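 Viability read as CellTiter-Glo ATP luminescence (loss of signal = cytotoxicity) in the same plates as the TRβ-bla readout. TRβ-LBD/GAL4 UAS-bla HEK293T cells were exposed to compounds, 11 concentrations in triplicate, for 18 h at 37C/5% CO2.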
# [15] = TOX21_TRB_BLA_Agonist_Followup_viability: Viability Assessment in the Tox21 Thyroid Hormone Receptor beta Agonism Beta-lactamase (BLA) Follow-Up Assay (AID 2283956)
# Summary of the method: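 TRb-bla HEK293T cells (GAL4-DBD/human TRb LBD) in 2% charcoal-stripped FBS medium were exposed 18 h at 37C to 11 concentrations in triplicate. CellTiter-Glo ATP luminescence was read after 30 min at room temperature, with bidirectional fitting against DMSO.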
# [16] = target: THRB (gene 7068) (UniProt P10828); assay: TOX21_TRB_BLA_Antagonist_Followup_ratio: Tox21 Thyroid Hormone Receptor beta Antagonism Beta-lactamase (BLA) Follow-Up Assay, Ratio (AID 2283958)
# Summary of the method: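 GAL4-DBD/human TRβ-LBD fusion in GeneBLAzer UAS-bla HEK293T cells, 3,000 cells/well in phenol red-free DMEM with 2% charcoal-stripped FBS; compounds at 11 concentrations in triplicate, 18 h at 37C. CCF4-AM substrate 2 h, 460:530 nm ratio relative to DMSO.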
# [17] = target: Thyroid hormone receptor alpha (Rattus norvegicus) + Thyroid hormone receptor beta (Rattus norvegicus) (UniProt P18113+P63059); assay: TOX21_TR_LUC_GH3_Antagonist_Followup: Tox21 GH3 Thyroid Hormone Receptor Antagonism Luciferase Follow-Up Assay (AID 2283942)
# Summary of the method: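 Antagonist mode: GH3 cells seeded 1,500/well, compounds at 15 concentrations (92 uM to 5nM final) plus T3 at 1.0 nM final, 24 h at 37C. Luciferase read with ONE-Glo after 30 min at room temperature.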
smiles,measurement,setting,value
CCCCCCCCCCC,outcome,[1],inactive
same,AC50,[2],inconclusive: 50 µM
same,AC50,[3],inconclusive: 50 µM
Oc1c(Cl)cc(Cl)c(Cl)c1Cc1c(O)c(Cl)cc(Cl)c1Cl,AC50,[4],active: 33.3 µM
same,AC50,[5],inconclusive: 50 µM
COc1ccccc1NC(=O)c1cc2ccccc2cc1O,AC50,[6],inconclusive: 38.3 µM
same,AC50,[7],inconclusive: 25.7 µM
same,AC50,[8],active: 22 µM
same,AC50,[4],active: 24.1 µM
Cc1ccc2oc(CN(Cc3ccccc3)C(=O)Nc3c(F)cc(F)cc3F)c(-c3ccc(Cl)cc3)c2c1,AC50,[9],inconclusive: 40.8 µM
Cc1cccc(Nc2cc(Cl)nc(SCC(=O)O)n2)c1C,AC50,[10],inconclusive: 50 µM
same,AC50,[2],inconclusive: 50 µM
same,AC50,[3],inconclusive: 50 µM
C[C@]12CCC(=O)C=C1CC[C@@H]1[C@@H]2C(=O)C[C@@]2(C)[C@H]1CC[C@]2(O)C(=O)CO,AC50,[9],inconclusive: 46.1 µM
same,AC50,[11],inconclusive: 46.1 µM
COCC(C)OCC(C)O (configuration not stated),AC50,[10],inconclusive: 50 µM
O=C(Nc1ccc2c(c1)Cc1ccccc1-2)C(F)(F)F,outcome,[9],inactive
CCCN(CCC)C(=O)SCC,AC50,[1],inconclusive: 38.3 µM
same,AC50,[12],inconclusive: 38.3 µM
same,outcome,[2],inactive
same,AC50,[3],inconclusive: 0.000508 µM
same,outcome,[5],inactive
C[C@H]1C[C@H]2[C@@H]3CCC4=CC(=O)C=C[C@]4(C)[C@@]3(F)[C@@H](O)C[C@]2(C)[C@@]1(O)C(=O)CO,outcome,[11],inactive
same,AC50,[5],inconclusive: 50 µM
O=C(O)C(F)(F)C(F)(F)C(F)(F)C(F)(F)C(F)(F)C(F)(F)C(F)(F)C(F)(F)Cl,outcome,[13],inactive
CC(C)=CCC/C(C)=C\CO,AC50,[1],inconclusive: 38.3 µM
COc1cc(C(=O)NC2CCN(C)CC2)ccc1Nc1ncc2c(n1)N(C1CCCC1)CC(F)(F)C(=O)N2C,AC50,[14],active: 46.7 µM
C[C@]12CC[C@@H]3c4ccc(O)cc4CC[C@H]3[C@@H]1CC[C@@H]2OC(=O)CCC1CCCC1,AC50,[9],inconclusive: 23 µM
same,AC50,[11],inconclusive: 23 µM
COc1ccc(C(Cl)=C(c2ccc(OC)cc2)c2ccc(OC)cc2)cc1,AC50,[6],inconclusive: 38.3 µM
same,AC50,[7],inconclusive: 38.3 µM
same,outcome,[8],inactive
same,AC50,[5],inconclusive: 50 µM
CCOC(=O)[C@@H](C)Oc1ccc(Oc2nc3ccc(Cl)cc3o2)cc1,outcome,[10],inactive
CC(=O)C1(C)CC2=C(CCCC2(C)C)CC1C (configuration not stated),outcome,[10],inactive
CC(CCO)CCCC(C)(C)O (configuration not stated),AC50,[1],inconclusive: 38.1 µM
same,AC50,[12],inconclusive: 38.1 µM
CCNc1nc(N)nc(Cl)n1,AC50,[1],inconclusive: 38.3 µM
same,outcome,[15],inactive
same,AC50,[5],inconclusive: 50 µM
Nc1ccn([C@@H]2O[C@H](CO)[C@@H](O)[C@@H]2O)c(=O)n1,AC50,[6],inconclusive: 38.3 µM
same,AC50,[16],inconclusive: 0.0198 µM
same,AC50,[8],inconclusive: 38.3 µM
same,AC50,[4],inconclusive: 38.3 µM
same,AC50,[5],inconclusive: 50 µM
Cc1c(C(=O)c2c[nH]n(C)c2=O)ccc(S(C)(=O)=O)c1C1=NOCC1,AC50,[10],inconclusive: 21.4 µM
same,AC50,[2],inconclusive: 21.4 µM
same,AC50,[3],inconclusive: 21.4 µM
Oc1ccccc1,AC50,[12],inconclusive: 38.5 µM
O=Cc1ccccc1S(=O)(=O)O,AC50,[1],inconclusive: 38.3 µM
Nc1nc(N)c2nc(CNc3ccc(C(=O)N[C@@H](CCC(=O)O)C(=O)O)cc3)cnc2n1,AC50,[6],inconclusive: 36.2 µM
same,AC50,[16],inconclusive: 36.2 µM
same,AC50,[7],inconclusive: 36.2 µM
N=c1ccn2c(n1)O[C@H]1[C@H](O)[C@@H](CO)O[C@H]12,outcome,[17],inactive
same,AC50,[6],inconclusive: 38.3 µM
same,AC50,[8],inconclusive: 38.3 µM
Cc1cc(C)nc(NS(=O)(=O)c2ccc(N)cc2)n1,AC50,[1],inconclusive: 38.3 µM
same,AC50,[5],inconclusive: 50 µM
Clc1ccc(C(c2ccccc2Cl)C(Cl)Cl)cc1 (configuration not stated),AC50,[9],inconclusive: 16.8 µM
same,AC50,[11],inconclusive: 23 µM
CCCOc1sc(C(=O)N2CCC(c3cc(CN)ccc3F)CC2)c(C)c1Br,outcome,[10],inactive
same,AC50,[2],active: 7.93 µM
Cc1occc(=O)c1O,AC50,[1],inconclusive: 15 µM
same,AC50,[15],inconclusive: 39.8 µM
same,AC50,[12],inconclusive: 39.8 µM
same,AC50,[5],inconclusive: 50 µM
Nc1cc(Cl)c(-c2cc(Cl)c(N)cc2Cl)cc1Cl,outcome,[6],inactive
same,outcome,[7],inactive
O=C(NCc1ncc(C(F)(F)F)cc1Cl)c1c(Cl)cccc1Cl,outcome,[10],inactive
same,AC50,[2],inconclusive: 50 µM
same,outcome,[2],inactive
same,AC50,[5],inconclusive: 50 µM

# Retrieved one by one from above (two):
smiles,measurement,setting,value
COc1ccccc1NC(=O)c1cc2ccccc2cc1O,AC50,[8],active: 22 µM
Cc1cccc(Nc2cc(Cl)nc(SCC(=O)O)n2)c1C,AC50,[2],inconclusive: 50 µM

# In another format: results already given
smiles	measurement	setting	value
O=C(NCc1ncc(C(F)(F)F)cc1Cl)c1c(Cl)cccc1Cl	outcome	[2]	inactive
same	AC50	[5]	inconclusive: 50 µM

# Source: PubChem BioAssay (EPA / NIEHS)
